Data on ten molecules can be found in patent publication US20260193326A1.

Residue numbers refer to the chain shown, from its start. These are yes or no findings as the source states them, for the method shown. Binding calls can cover weak binding; strength is not graded here.

To fix the notation:
B1: A4-D1 (VHH)
chain: VQLQESGGGLAQAGGSLRLSCAASGRGFSINTMGWYRQAPGKQRELVAAVTRGGTTNYADSVKGRFTISRDNAKNTVYLQMNSLRPEDTAVYYCHVDEVRQSSWTTSNLWGQGTQVTVSSGGGGSGGGGSGGGGSVQLQESGGGLAQAGGSLRLSCAASGRGFSINTMGWYRQAPGKQRELVAAVTRGGTTNYADSVKGRFTISRDNAKNTVYLQMNSLRPEDTAVYYCHVDEVRQSSWTTSNLWGQGTQVTVSSGGGGSGGGGSGGGGSVQLQESGGGLAQAGGSLRLSCAASGRGFSINTMGWYRQAPGKQRELVAAVTRGGTTNYADSVKGRFTISRDNAKNTVYLQMNSLRPEDTAVYYCHVDEVRQSSWTTSNLWGQGTQVTVSSGGGGSGGGGSGGGGSVQLQESGGGLAQAGGSLRLSCAASGRGFSINTMGWYRQAPGKQRELVAAVTRGGTTNYADSVKGRFTISRDNAKNTVYLQMNSLRPEDTAVYYCHVDEVRQSSWTTSNLWGQGTQVTVSS
B2: A4-D4 (VHH)
chain: B1 chain with A146V, A148P
B3: A4-D3 (VHH)
chain: B1 chain with A416V, A418P
B4: A4-D2 (VHH)
chain: B1 chain with A11V, A146V, A281V, A416V
B5: A4-D5 (protein)
chain: VQLQESGGGLVQPGGSLRLSCVASGSSFSINTMGWYRRAPGKQRELVATVTRDGSTNYANSVKGRFTISRDNAKNTVYLQMNSLRPEDTAVYYCHVDEVRQSSWTTSNLWGQGTQVTVSSGGGGSGGGGSGGGGSVQLQESGGGLVQPGGSLRLSCVASGSSFSINTMGWYRRAPGKQRELVATVTRDGSTNYANSVKGRFTISRDNAKNTVYLQMNSLRPEDTAVYYCHVDEVRQSSWTTSNLWGQGTQVTVSSGGGGSGGGGSGGGGSVQLQESGGGLVQPGGSLRLSCVASGSSFSINTMGWYRQAPGKQRELVATVTRDGSTNYANSVKGRFTISRDNAKNTVYLQMNSLRPEDTAVYYCHVDEVRQSSWTTSNLWGQGTQVTVSSGGGGSGGGGSGGGGSVQLQESGGGLVQPGGSLRLSCVASGSSFSINTMGWYRRAPGKQRELVATVTRDGSTNYANSVKGRFTISRDNAKNTVYLQMNSLRPEDTAVYYCHVDEVRQSSWTTSNLWGQGTQVTVSS
B6: A4-H3 (VHH)
VHH: VQLQASGGGFVQPGGSLRLSCAASGSIFSINLMGWFRQAPGKERELVAVITPGGNTYYADSVKGRFTISRDNSKNTVYLQMNSLRAEDTATYYCHVDEVRQSSWTTSNLWGQGTQVTVSS
B7: A4-H1 (VHH)
VHH: VQLVESGGGLVQPGGSLRLSCAASGRSFSINTMGWFRQAPGKGLEAVAIVTRGGSTYYADSVKGRFTISRDNSKNTLYLQMNSLRAEDTAVYYCHIDEVRQSSWTTSNIWGQGTLVTVSS
B8: A4-H2 (VHH)
VHH: B6 VHH with S26R, I27S, L32T, L46F, I50V, P52R, N55S, V96I, L109I
B9: A4-H4 (VHH)
VHH: B6 VHH with Q4V, A5E, F10L, E43G, R44L, V49I, T91V, Q115L
B10: A4-040 (VHH)
VHH: VQLQESGGGLVQPGGSLRLSCAASGRIFSINTMGWYRQAPGKQRELVATVTRGGSTNYADSVKGRFTISRDNAKNTVYLQMNSLRPEDTAVYYCHVDEIRQSSWTTSNLWGQGTQVTVSS

One assay concerns the target AAV5 (adeno-associated virus serotype 5 (AAV5)). The assay is described as follows: SPR, AAV amine-coupled to CM5 chip. Background: Surface plasmon resonance follows binding to a sensor surface in real time, without labels.
In the case of B1, the binding result was “binds”.

With B2, the binding entry is given as “binds”.

On to B3, for which the binding result is “binds”.

Consider B4, for which the binding result was “binds”.

Consider B5, for which the binding result was “binds”.

The target of a further assay is AAV8 (adeno-associated virus serotype 8 (AAV8)). Nature of the assay: SPR, AAV amine-coupled to CM5 chip.
With B1, the binding entry is on record as “binds”.

On to B2, for which the binding entry was “binds”.

On to B3, for which the binding result is “binds”.

Turning to B4, the binding entry is given as “binds”.

On to B5, for which the binding result is “binds”.

The next assay addresses AAV9 (adeno-associated virus serotype 9 (AAV9)). Nature of the assay: SPR, AAV amine-coupled to CM5 chip.
Take B1: the binding entry is “binds”.

Take B2: the binding result was “binds”.

Take B3: the binding result is listed as “binds”.

For B4, the binding entry is “binds”.

For the molecule B5, the binding entry is “binds”.

A further assay has as its target AAV5 (adeno-associated virus serotype 5 (AAV5)). Nature of the assay: SPR, recombinant AAV particles amine-coupled to CM5 chip.
Regarding B6, the binding result was “binds”.

For B7, the binding entry was “binds”.

As for B8, the binding entry is recorded as “binds”.

As for B9, the binding entry is “binds”.

The target in the next assay is AAV8 (adeno-associated virus serotype 8 (AAV8)). The assay is described as above.
On to B6, for which the binding result is on record as “binds”.

As to B7, the binding entry was “binds”.

Consider B8, for which the binding result is given as “binds”.

Turning to B9, the binding entry is reported as “binds”.

For a further assay, the target named is AAV9 (adeno-associated virus serotype 9 (AAV9)). Described as above.
As to B6, the binding entry was “binds”.

Take B7: the binding result is reported as “binds”.

In the case of B8, the binding entry was “binds”.

As for B9, the binding result is recorded as “binds”.

For another assay, the target named is AAV8 (adeno-associated virus serotype 8 (AAV8)). Nature of the assay: sandwich ELISA, A4-040 coated as capture ligand, AAV8 standards, detection with HRP-conjugated A4-021.
B10: the binding entry is reported as “binds”.
